Reference: US10881712B2, “Neuroprotective agents derived from spider venom peptides” (THE UNIVERSITY OF QUEENSLAND, priority 2015, dated 2021)
pIC50: −log10 of the molar value. For at least one compound, name, drawing or mass did not settle the structure. Bridge positions count the residues as written; N and C are the ends. Peptide text beside a SMILES is read from it.

Target: T1, rASIC1a (Rattus norvegicus, UniProt P55926)
T1 construct: expressed in transfected cells; host or cells: Xenopus laevis oocytes injected with cRNA
T1 sequence (P55926 1-526): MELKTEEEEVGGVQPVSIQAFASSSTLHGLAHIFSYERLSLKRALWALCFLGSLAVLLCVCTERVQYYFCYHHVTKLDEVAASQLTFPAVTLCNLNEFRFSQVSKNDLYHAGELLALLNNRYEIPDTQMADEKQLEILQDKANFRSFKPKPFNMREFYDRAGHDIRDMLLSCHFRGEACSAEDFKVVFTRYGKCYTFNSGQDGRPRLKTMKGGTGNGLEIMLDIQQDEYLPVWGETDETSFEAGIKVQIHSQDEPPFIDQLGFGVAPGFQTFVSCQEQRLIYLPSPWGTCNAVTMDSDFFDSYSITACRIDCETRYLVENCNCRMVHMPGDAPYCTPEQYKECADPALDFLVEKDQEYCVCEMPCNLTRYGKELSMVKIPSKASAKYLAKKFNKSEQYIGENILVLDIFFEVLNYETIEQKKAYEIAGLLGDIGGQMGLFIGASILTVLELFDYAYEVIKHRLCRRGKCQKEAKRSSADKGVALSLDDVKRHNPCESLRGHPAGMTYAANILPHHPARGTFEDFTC
Assay: Two-electrode voltage clamp (TEVC) on Xenopus laevis oocytes expressing homomeric rASIC1a
Format: cell-based
Method: The ability of the peptides of the invention to modulate ASIC currents was assessed using two-electrode voltage clamp (TEVC) electrophysiology experiments performed on Xenopus laevis oocytes expressing homomeric ASIC channels. Xenopus oocytes are widely used as an expression system for functional characterisation of ion channel modulators. TEVC allows measurement of whole-cell ion channel currents while controlling the membrane potential.
Oocytes were harvested from anaesthetised female X. laevis then defolliculated by treatment with collagenase (Sigma, type I). Oocytes were injected with in vitro transcribed ASIC cRNA (capped RNA). Oocytes were kept at 17-18° C. in ND96 solution containing 96 mM NaCl, 2 mM KCl, 1.8 mM CaCl2, 2 mM MgCl2, 5 mM HEPES, 5 mM pyruvic acid, 50 μg/ml gentamicin (pH 7.4), and fetal horse serum (2.5%), and experiments were performed at room temperature (21-22° C.) 1-3 days after cRNA injection. Oocytes were clamped at −60 mV (Warner OC-725C oocyte clamp; Warner Instruments, CT, USA) using two standard glass microelectrodes of 0.5-2 MΩ resistance when filled with 3 M KCl. Data acquisition and analysis were performed using pCLAMP software, Version 10 (Axon Instruments, CA, USA). Currents were elicited by a drop in pH from 7.45 to 6.0 using a microperfusion system to allow rapid solution exchange. […]

Row | Molecule | pIC50 (TEVC, currents elicited by pH drop 7.45 to 6.0) | pIC50 (isolated ICK domain)
1 | QECIAKWKSCAGRKLDCCEGLECWKRRWGHEVCVPITQKIFCLEKWKSCFERKYDCCEELECWERRGNKHPVCAPKQ (disulfide 3-18, 10-23, 17-33, 42-57, 49-62, 56-73) [Hi1d] | 6.71 | 
2 | CC[C@H](C)[C@@H]1NC(=O)[C@@H](NC(=O)[C@H](CCC(=O)O)NC(=O)[C@H](CC(N)=O)NC(=O)[C@@H](N)CO)CSSC[C@@H]2NC(=O)[C@@H]3CSSC[C@@H](C(=O)N[C@H](C(=O)N4CCC[C@H]4C(=O)N[C@H](C(=O)N4CCC[C@H]4C(=O)O)[C@@H](C)CC)C(C)C)NC(=O)[C@H](C(C)C)NC(=O)[C@H](CCC(=O)O)NC(=O)[C@H](Cc4ccccc4)NC(=O)[C@H](CO)NC(=O)[C@H](Cc4c[nH]cn4)NC(=O)[C@H](CCCNC(=N)N)NC(=O)[C@H](CCCNC(=N)N)NC(=O)[C@H](CCCCN)NC(=O)[C@H](Cc4ccc(O)cc4)NC(=O)[C@H](CSSC[C@H](NC(=O)[C@H](CO)NC(=O)[C@H](CC(C)C)NC(=O)[C@H](Cc4c[nH]c5ccccc45)NC(=O)[C@H](CCCCN)NC(=O)[C@H](CCCNC(=N)N)NC1=O)C(=O)N[C@@H](C(C)C)C(=O)N[C@@H](CC(=O)O)C(=O)N[C@@H](CCCNC(=N)N)C(=O)N[C@@H](CCCCN)C(=O)N[C@@H](CC(N)=O)C(=O)N[C@@H](CC(=O)O)C(=O)N3)NC(=O)[C@H](CCC(=O)O)NC(=O)[C@H](CC(C)C)NC(=O)CNC(=O)[C@H](CCC(=O)O)NC2=O [Hi1a_N] (H-SNECIRKWLSCVDRKNDCCEGLECYKRRHSFEVCVPIP-OH; disulfide 4-19, 11-24, 18-34) |  | ~6.00
